Assay results: the RNAGym collection of RNA variant scans (doi:10.1126/science.aae0568)
This sample is rich in variants without activity.

B1: tRNA (parent)
chain: GUUCCGUUGGCGUAAUGGUAACGCGUCUCCCUCCUAAGGAGAAGACUGCGGGUUCGAGUCCCGUACGGAACG

Variants of: B1
Test: yeast fitness relative to wild type (ratio to wild type); higher = fitter; tRNA-Arg(CCU), competitive growth, 37 C, YPD
How it was run: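 Amplicons of the tRNA-Arg(CCU) gene were sequenced, 100-nucleotide paired-end, from the start population and from each end population of a pooled yeast competition. The competition, in six parallel replicates, lasted 24 hours in YPD at 37°C. Fitness relative to wild type was calculated from changes in genotype frequencies. Genotypes had to have ≥ 100 starting reads, and estimates < 0.5 were set to 0.5.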

Row | Variant | yeast fitness
1 | GUUCCGUUGGCGUAAUGGUAAAGCGUCUACCUCCUAAGGAGAAGACUGCGGGUUCUAGUCUCGUACGGAACG [C22A C29A G56U C61U] | ≤ 0.5
2 | GUUCCGUUGGCGUAAUGGUAAAGCGUCUCACUCCUAAGGAGAAGACUGCGGGUUCGAGUCCCGUCCGGAACG [C22A C30A A65C] | ≤ 0.5
3 | GUUCCGUUGGCGUAAUGGUAAAGCGUCUCUGUCCUAAGGAGAAGACUGCGGGUUCGAGUCUCGUACGGCACG [C22A C30U C31G C61U A69C] | ≤ 0.5
4 | GUUCCGUUGGCGUAAUGGUAAAGCGUCUCCCUCCUAAGGAGAAGACUGCGGGUUCGAGUCGCGUUCGGAACG [C22A C61G A65U] | ≤ 0.5
5 | GUUCCGUUGGCGUAAUGGUAAAGCGUCUCCCUCCUAAGGACAAGACUGCGGGUUCGAGUCCCGUCCGGAACG [C22A G41C A65C] | ≤ 0.5
6 | GUUCCGUUGGCGUAAUGGUAAAGCGUCUCCCUCCUAAGGAGAAGACUGCGGGUUCGAGUCCCGUACUGAACG [C22A G67U] | 0.774
7 | GUUCCGUUGGCGUAAUGGUAAGGCGUCUCCCUCCUUAGGAGAAGACUGCGGGUUUAAGUCCCGUACGGAACG [C22G A36U C55U G56A] | ≤ 0.5
8 | GUUCCGUUGGCGUAAUGGUAAGGCGUCUCCCUCCUAGGGAGAAGACUGCGAGUUCGAGUCCCGUACGGAACG [C22G A37G G51A] | ≤ 0.5
9 | GUUCCGUUGGCGUAAUGGUAAGGCGUCUCCCUCCUAUGGGGAUGACUGCGGGUUCGAGUCCCGUCCGGAACG [C22G A37U A40G A43U A65C] | ≤ 0.5
10 | GUUCCGUUGGCGUAAUGGUAAGGCGUCUCCCUCCUAAGGAGCAGACUGCGGAUUCGAGUCCUGUACGGAACG [C22G A42C G52A C62U] | ≤ 0.5
11 | GUUCCGUUGGCGUAAUGGUAAGGCGUCUCCCUCCUAAGGAGAUGAGUGCGGGUUCGAGUCCCGUAUGGAACG [C22G A43U C46G C66U] | ≤ 0.5
12 | GUUCCGUUGGCGUAAUGGUAAGGCGUCUCCCUCCUAAGGAGAAGGUUGCGGGUUCGAGUCCCGUACGGAACG [C22G A45G C46U] | 0.644
13 | GUUCCGUUGGCGUAAUGGUAAGGGGUGUCCCUCCUAAGGAGAAGACUGCGGGUUCGAGUUCCGUACGGAACG [C22G C24G C27G C60U] | ≤ 0.5
14 | GUUCCGUUGGCGUAAUGGUAAGGUGUCUCCCUCCUACGGAGAAGACUGCGCGUUUGAGUCCCGUACGGAACG [C22G C24U A37C G51C C55U] | ≤ 0.5
15 | GUUCCGUUGGCGUAAUGGUAAGGCGUGUCCCUCCUUAGGCGAAGACUGCGGGUUCGAGUCCCGUAUGGAACG [C22G C27G A36U A40C C66U] | ≤ 0.5
16 | GUUCCGUUGGCGUAAUGGUAAGGCGUCUACCUCCUAAGGAGAAGACUGCGGGUUCGAGUCCCGUACGCAACG [C22G C29A G68C] | ≤ 0.5
17 | GUUCCGUUGGCGUAAUGGUAAGGCGUCUGCCUCCUAAGGAGCAGCCUGCGGGUUCGAGUCGCGUACGGUACG [C22G C29G A42C A45C C61G A69U] | ≤ 0.5
18 | GUUCCGUUGGCGUAAUGGUAAGGCGUCUCGCUCCUAAGGAGAAGACUGCGGGUUCGAGUCCCGUACGAAACG [C22G C30G G68A] | ≤ 0.5
19 | GUUCCGUUGGCGUAAUGGUAAGGCGUCUCCAUCUUAAGGAGAUGACUGCGGGUUCGAGUCCCGUACGGAACG [C22G C31A C34U A43U] | ≤ 0.5

Row | Variant | yeast fitness
20 | GUUCCGUUGGCGUAAUGGUAAGGCGUCUCCCUCCUAAGGAGAAGAGUGCGGGUUCGAGUCCUGUAUGGAACG [C22G C46G C62U C66U] | ≤ 0.5
21 | GUUCCGUUGGCGUAAUGGUAAGCCGUCUCCCUCCUAAGAAGAAGCCUGUGGGUUCGAGGCCCGUACGGAACG [C22G G23C G39A A45C C49U U59G] | ≤ 0.5
22 | GUUCCGUUGGCGUAAUGGUAAGGCGUCUCCCUCCUAAGGAGAACACUGAGGGUUCGAGUCCCGUACGGAACG [C22G G44C C49A] | ≤ 0.5
23 | GUUCCGUUGGCGUAAUGGUAAUGCGUCUCCCUCCUACGGACAAGACUGCGGGUUCGAGUCCCGUACGGAACG [C22U A37C G41C] | ≤ 0.5
24 | GUUCCGUUGGCGUAAUGGUAAUGCGUCUCCCUCCUACGGAGAAGACUGCGGGUUCGACUCGCGUACGGAACG [C22U A37C G58C C61G] | ≤ 0.5
25 | GUUCCGUUGGCGUAAUGGUAAUGCGUCUCCCUCCUAAGGGGAUGAGUGGGGGUUCGAAUCCUGUACGGAACG [C22U A40G A43U C46G C49G G58A C62U] | ≤ 0.5
26 | GUUCCGUUGGCGUAAUGGUAAUGCGUCUCCCUCCUAAGGAGUAGACUGCGGGUUCGAGUCCCGUACGGAACG [C22U A42U] | 0.749
27 | GUUCCGUUGGCGUAAUGGUAAUGCGUCUCCCUCCUAAGGAGUAGACUGCGGGUUCGAGUCCCGUACGAAACG [C22U A42U G68A] | ≤ 0.5
28 | GUUCCGUUGGCGUAAUGGUAAUGCGUCUCCCUCCUAAGGAGAUGACUGCGGGUUCGAGCCCCGUACGGAACG [C22U A43U U59C] | ≤ 0.5
29 | GUUCCGUUGGCGUAAUGGUAAUGCGUAUCCGUCCUAAGGAGAACACUGCGGGUUCGAGUCCUGUACGGAACG [C22U C27A C31G G44C C62U] | ≤ 0.5
30 | GUUCCGUUGGCGUAAUGGUAAUGCGUCUUCCUCCUAAGGAAAAGACUGCGGGUUUGAGUCACGUACGGAACG [C22U C29U G41A C55U C61A] | ≤ 0.5
31 | GUUCCGUUGGCGUAAUGGUAAUGCGUCUCGCUCCUAAGGAGAAGACUGCCGGUUCGAGUCCCGUACGGAGCG [C22U C30G G50C A70G] | ≤ 0.5
32 | GUUCCGUUGGCGUAAUGGUAAUGCGUCUCUCUCCUAAGGAGAAGACUACGGGUUCGAGUGCCGUACGGAACG [C22U C30U G48A C60G] | ≤ 0.5
33 | GUUCCGUUGGCGUAAUGGUAAUGCGUCUCUCUCCUAAGGAGAAGACAGCGGGUUCGAGUCCCGUACGGAACG [C22U C30U U47A] | ≤ 0.5
34 | GUUCCGUUGGCGUAAUGGUAAUGCGUCUCCGUCCUAAGGAGAUGACUGCGGGUUCGAGUACCGUACGGAGCG [C22U C31G A43U C60A A70G] | ≤ 0.5
35 | GUUCCGUUGGCGUAAUGGUAAUGCGUCUCCCUCAUAAGGAGAAGACUGCGGGUUCGAGUCCCGUACGGAUCG [C22U C34A A70U] | ≤ 0.5
36 | GUUCCGUUGGCGUAAUGGUAAUGCGUCUCCCUCGUUAGGAGAAGACUGCGGGUUCGAGUCCCGUACGGAGCG [C22U C34G A36U A70G] | ≤ 0.5
37 | GUUCCGUUGGCGUAAUGGUAAUGCGUCUCCCUCCUAAGGAGAAGACUGGGGGAUCGAGUCCCGUACGGAACG [C22U C49G U53A] | 0.558
38 | GUUCCGUUGGCGUAAUGGUAAUGCGUCUCCCUCCUAAGGAGAAGACUGCGGGUUGGAGUCCCGUACGGCACG [C22U C55G A69C] | ≤ 0.5
